PubChem BioAssay AID1053208 | Peter MacCallum Cancer Centre | 2014
Purpose: 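Genes whose silencing cuts survival of bone tumour cells only with doxorubicin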 (primary screen). Cells: mouse osteosarcoma cells, early-passage culture from an engineered mouse model of fibroblastic bone tumour. Knock-down reagent: siRNA pool against mouse genes, 40 nM. Timing: about 120 h (48 h before drug, then 72 h with drug). Treatment: doxorubicin 100 nM for 72 h, roughly 30-40% inhibitory dose. Measured: 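Luminescent ATP signal taken as viability with or without 100 nM doxorubicin for 72 h; mean of two wells set against non-targeting siRNA and turned into robust z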. Scale: viability z-score with doxorubicin and doxorubicin viability vs non-targeting: higher = more viable cells under doxorubicin; viability z-score without drug: higher = more viable cells with knock-down alone; z-score of drug to no-drug ratio: higher = less drug sensitisation by knock-down. Rule for the call: 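Called active if knock-down leaves viability unchanged without drug (z within -2 to 2) but lowers it with doxorubicin (z at or under -2)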.
The deposit covers about 17,000 reagents; shown is a part drawn at random. 788 of them (4.7%) count as active. 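Calls rest on z-score classes alone; an extra cut-off of viability at most 70% of control was not applied to them.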 A number with no mark means an inactive call. The numbers tell different reagents against one gene apart.

Gene	reagent no.	combined z-score class	viability z-score with doxorubicin	viability z-score without drug	z-score of drug to no-drug ratio	doxorubicin viability vs non-targeting
Slc67a2	1	high cell count without drug only	0.9	3.71	-1.24	1.02
Grm8 (glutamate receptor, metabotropic 8)	1	high cell count with doxorubicin only	2.47	-0.34	3.04	1.16
Or8h9 (olfactory receptor family 8 subfamily H member 9)	1	no change with or without drug	1.12	0	1.24	1.04
Krtap19-9b (keratin associated protein 19-9B)	1	no change with or without drug	0.34	-1.52	1.69	0.97
Herpud1	1	no change with or without drug	-1.01	-0.17	-0.9	0.85
Art5 (ADP-ribosyltransferase 5)	1	no change with or without drug	1.57	-0.17	1.91	1.08
Hpse (heparanase)	1	no change with or without drug	0.45	1.35	-0.34	0.98
Mamdc2 (MAM domain containing 2)	1	no change with or without drug	0.22	0.51	0	0.96
Mars2 (methionine-tRNA synthetase 2 (mitochondrial))	1	no change with or without drug	0	0	0.11	0.94
Mrpl49 (mitochondrial ribosomal protein L49)	1	no change with or without drug	0.67	-1.85	2.36	1
Fzr1 (fizzy and cell division cycle 20 related 1)	1	no change with or without drug	-0.22	-0.51	0.22	0.92
Btg3 (BTG anti-proliferation factor 3)	1	no change with or without drug	1.35	0.51	1.12	1.06
Igfbp4 (insulin-like growth factor binding protein 4)	1	no change with or without drug	-0.9	-1.18	0	0.86
Myoc (myocilin)	1	no change with or without drug	0.22	-0.17	0.45	0.96
Or2h2c (olfactory receptor family 2 subfamily H member 2C)	1	no change with or without drug	-1.8	-1.52	-0.79	0.78
Xlr5c (X-linked lymphocyte-regulated 5C)	1	no change with or without drug	0.9	0.51	0.67	1.02
1700010H22Rik (RIKEN cDNA 1700010H22 gene)	1	low cell count with and without drug	-2.02	-2.02	-0.67	0.76
Ikzf4 (IKAROS family zinc finger 4)	1	high cell count with and without drug	4.16	2.36	2.47	1.31
Ikzf4 (IKAROS family zinc finger 4)	2	no change with or without drug	0	0.51	-0.22	0.94
Ftsj1 (FtsJ RNA 2'-O-methyltransferase 1)	1	no change with or without drug	0.45	-1.18	1.46	0.98
Vmn1r198 (vomeronasal 1 receptor 198)	1	low cell count with doxorubicin only (active)	-2.47	0.51	-2.81	0.72
Akap1 (A kinase anchor protein 1)	1	no change with or without drug	-0.9	-1.85	0.45	0.86
Psmg3 (proteasome (prosome, macropain) assembly chaperone 3)	1	no change with or without drug	-0.67	1.18	-1.35	0.88
Pof1b (premature ovarian failure 1B)	1	no change with or without drug	0.34	-0.84	1.12	0.97
Kif20b (kinesin family member 20B)	1	high cell count with doxorubicin only	2.25	1.01	1.69	1.14
Wdr31 (WD repeat domain 31)	1	no change with or without drug	0.45	1.18	-0.22	0.98
Rgl3 (ral guanine nucleotide dissociation stimulator-like 3)	1	no change with or without drug	0.67	1.18	0	1
Btbd3 (BTB domain containing 3)	1	no change with or without drug	0	-0.34	0.34	0.94
Eif3l (eukaryotic translation initiation factor 3, subunit L)	1	no change with or without drug	-1.12	0.17	-1.12	0.84
Kif5a (kinesin family member 5A)	1	no change with or without drug	-1.12	-0.34	-0.9	0.84
Trpv6	1	no change with or without drug	0.79	1.52	-0.11	1.01
Hspa12b (heat shock protein family A (Hsp70) member 12B)	1	no change with or without drug	0	0.17	0	0.94
Osbpl11 (oxysterol binding protein-like 11)	1	no change with or without drug	-0.22	-0.84	0.45	0.92

Called active, among the entries above:
Gene	reagent no.	combined z-score class	viability z-score with doxorubicin	viability z-score without drug	z-score of drug to no-drug ratio	doxorubicin viability vs non-targeting
Vmn1r198 (vomeronasal 1 receptor 198)	1	low cell count with doxorubicin only (active)	-2.47	0.51	-2.81	0.72

The listing continues.
Gene	reagent no.	combined z-score class	viability z-score with doxorubicin	viability z-score without drug	z-score of drug to no-drug ratio	doxorubicin viability vs non-targeting
Klhdc3 (kelch domain containing 3)	1	no change with or without drug	-1.24	-1.01	-0.56	0.83
Snf8 (SNF8, ESCRT-II complex subunit, homolog (S. cerevisiae))	1	no change with or without drug	-0.11	0.51	-0.34	0.93
Tmeff2	1	no change with or without drug	1.12	1.18	0.45	1.04
Sv2a (synaptic vesicle glycoprotein 2a)	1	no change with or without drug	0.34	0.51	0.11	0.97
Il18rap (interleukin 18 receptor accessory protein)	1	no change with or without drug	-0.22	-1.69	1.12	0.92
Metap1 (methionyl aminopeptidase 1)	1	no change with or without drug	-0.11	-1.18	0.9	0.93
Atg5 (autophagy related 5)	1	no change with or without drug	-0.45	0.17	-0.45	0.9
Ogfod2	1	no change with or without drug	-1.12	0.67	-1.46	0.84
Smim5 (small integral membrane protein 5)	1	no change with or without drug	-1.8	-0.84	-1.24	0.78
Il18r1 (interleukin 18 receptor 1)	1	no change with or without drug	0.34	-1.18	1.35	0.97
Eif4b (eukaryotic translation initiation factor 4B)	1	high cell count without drug only	-0.79	2.36	-2.02	0.87
AA986860 (expressed sequence AA986860)	1	no change with or without drug	0.45	-0.51	1.01	0.98
Cisd1 (CDGSH iron sulfur domain 1)	1	no change with or without drug	-0.67	-1.01	0.11	0.88
Or4c111 (olfactory receptor family 4 subfamily C member 111)	1	no change with or without drug	-0.45	-0.17	-0.22	0.9
Oacyl (O-acyltransferase like)	1	no change with or without drug	1.69	0.84	1.24	1.09
Golt1a (golgi transport 1A)	1	no change with or without drug	0.22	-0.34	0.56	0.96
Rps6kb2 (ribosomal protein S6 kinase B2)	1	no change with or without drug	1.57	-1.18	2.81	1.08
